Where a name gives a salt, the structure may show the parent alone. The list shows a part of the results. Repeats are few or missing, and single values can be far off.
Tests used:
Test in all cases: reduction in cell viability relative to untreated/vehicle; higher = more growth inhibition
Settings in all cases: 200 nM; 72 h
[1] = tested on: M229P (parental melanoma line)
[2] = tested on: M229R (matched melanoma line resistant to BRAF inhibitors)
[3] = tested on: M238P (parental melanoma line)
[4] = tested on: M238R (matched melanoma line resistant to BRAF inhibitors)
[5] = tested on: M249P (parental melanoma line)
[6] = tested on: M249R (matched melanoma line resistant to BRAF inhibitors)
[7] = tested on: UACC62P (parental melanoma line)
[8] = tested on: UACC62R (matched melanoma line resistant to BRAF inhibitors)

Measured: reduction in cell viability

Cc1c(C)c2c(c(C)c1O)CCC(C)(COc1ccc(CC3SC(=O)NC3=O)cc1)O2 (centres undefined) [Troglitazone]
< 0%: all assays above

NC(=O)c1cccc(-c2cccc(OC(=O)NC3CCCCC3)c2)c1
< 0%: all assays above

O=C(Nc1c(Cl)cncc1Cl)c1ccc(OC(F)F)c(OCC2CC2)c1 [Roflumilast]
< 0%: all assays above

O=C(O)/C=C/c1ccc(Cn2ccnc2)cc1 [Ozagrel hydrochloride]
1.24%: [7]
< 0%: all other assays above

Cc1cc2c(s1)Nc1ccccc1N=C2N1CCN(C)CC1 [Olanzapine]
< 0%: all assays above

O=C(N[C@@H](c1ccccc1)[C@@H]1CCCCN1)c1cccc(C(F)(F)F)c1Cl
< 0%: all assays above

C#C[C@]1(O)CC[C@H]2[C@@H]3CCc4cc(OC)ccc4[C@H]3CC[C@@]21C [Mestranol]
6.7%: [7]
< 0%: all other assays above

Cc1ccc(-c2ncn(-c3ccc(Nc4nccc(-c5cccc(N6CCOCC6)c5)n4)cc3)n2)cn1
9.2%: [7]
7.84%: [2]
0.73%: [4]
24.7%: [8]
< 0%: all other assays above

C[C@@]1(C(=O)Nc2ccc(F)nc2)CCCN1c1nc(Nc2cc(C3CC3)n[nH]2)c2cccn2n1
2.85%: [7]
22.5%: [2]
29.6%: [3]
6.61%: [1]
< 0%: all other assays above

Cc1cccc(Nc2ccncc2S(=O)(=O)NC(=O)NC(C)C)c1 [Torasemide]
< 0%: all assays above

O=C(C1CCCCC1)N1CC(=O)N2CCc3ccccc3C2C1 (centres undefined) [Praziquantel]
0.24%: [7]
< 0%: all other assays above

COc1ccc(-c2c(-c3ccc(O)cc3O)n[nH]c2C)cc1
0.92%: [7]
< 0%: all other assays above

CN1CCN(c2ccc3nc(-c4c(N)c5c(F)cccc5[nH]c4=O)[nH]c3c2)CC1 [Dovitinib]
24.3%: [5]
33.5%: [3]
< 0%: [2] | [6]
13.9%: [4]
26.2%: [7]
4.99%: [1]
23.9%: [8]

CC(C)(C)OC(=O)N[C@H]1CCCCC/C=C\[C@@H]2C[C@@]2(C(=O)NS(=O)(=O)C2CC2)NC(=O)[C@@H]2C[C@@H](OC(=O)N3Cc4cccc(F)c4C3)CN2C1=O [Danoprevir]
10.4%: [7]
< 0%: all other assays above

CC1=C(/C=C/C(C)=C/C=C/C(C)=C\C(=O)O)C(C)(C)CCC1 [Isotretinoin]
< 0%: all assays above

O=C(O)CCCc1c[nH]c2ccccc12 [3-indolebutyric acid]
1.46%: [7]
< 0%: all other assays above

C=C(c1ccc(C(=O)O)cc1)c1cc2c(cc1C)C(C)(C)CCC2(C)C [Bexarotene]
< 0%: all assays above

O=C1NC(=O)/C(=C/c2cccc(C(F)(F)F)c2)S1
0.68%: [6]
< 0%: all other assays above

FC(F)c1nc2ccccc2n1-c1nc(N2CCOCC2)nc(N2CCOCC2)n1
1.89%: [8]
9.77%: [2]
10.5%: [3]
6.02%: [6]
15.8%: [4]
< 0%: all other assays above

c1cnc2cc3c(cc2n1)[C@@H]1CNC[C@H]3C1 [Varenicline dihydrochloride]
< 0%: all assays above

CCCCN(CCCC)CCC(O)c1cc2c(Cl)cc(Cl)cc2c2cc(C(F)(F)F)ccc12 (centres undefined) [Halofantrine]
0.44%: [8]
9.44%: [1]
21.2%: [7]
5.59%: [3]
< 0%: all other assays above

C#CCN(C)CC1=Cc2ccccc2Oc2ccccc21 [Omigapil]
7.62%: [7]
< 0%: all other assays above

OCCN1CCN(CCCN2c3ccccc3Sc3ccc(C(F)(F)F)cc32)CC1 [Fluphenazine hydrochloride]
< 0%: all assays above

CN(C)CCCN=c1c2ccccc2n(C)c2[nH]c(=O)n(C)c(=O)c12
16.5%: [7]
< 0%: all other assays above

CS(=O)(=O)N1CCc2c(-c3cnc(N)nc3)nc(N3CCOCC3)nc21
8.5%: [2]
12.2%: [3]
14.8%: [8]
6.14%: [5]
25.9%: [7]
< 0%: all other assays above

CC(=O)SCC(Cc1ccccc1)C(=O)NCC(=O)OCc1ccccc1 (centres undefined) [Racecadotril]
< 0%: all assays above

COC(=O)C[C@](O)(CCCC(C)(C)O)C(=O)O[C@@H]1C(OC)=C[C@]23CCCN2CCc2cc4c(cc2[C@H]13)OCO4 [Omacetaxine mepesuccinate]
54.6%: [8]
76.1%: [6]
63%: [7]
67.8%: [3]
73.5%: [4]
60.4%: [1]
68.4%: [2]
64.6%: [5]

COC(=O)C1=C(C)NC(C)=C(C(=O)OCCCN2CCC(c3ccccc3)(c3ccccc3)CC2)[C@H]1c1cccc([N+](=O)[O-])c1 [Niguldipine]
1.09%: [2]
< 0%: all other assays above

Cc1ccc(C(C)(O)c2nc3ccccc3s2)c(C)c1 (centres undefined)
< 0%: all assays above

CCCc1cc(C(N)=S)ccn1 [Protionamide]
< 0%: all assays above

Cc1cc(C(C)(C)C)cc(C)c1CC1=NCCN1 [Xylometazoline hydrochloride]
< 0%: all assays above

CN(C(=O)c1ccc(F)cc1C(F)(F)F)C1CCN(c2nnc(-c3ccnn3C)c3ccccc23)CC1
< 0%: all assays above

CC1(C)CC[C@]2(C(=O)O)CC[C@]3(C)C(=CC[C@@H]4[C@@]5(C)CC[C@H](O)C(C)(C)[C@@H]5CC[C@]43C)[C@@H]2C1 [Oleanolic acid]
< 0%: all assays above

CNc1nccc(-c2cccnc2Oc2cc(C(=O)Nc3cccc(C(F)(F)F)c3)ccc2C)n1
22.8%: [5]
4.72%: [6]
32.3%: [3]
26.3%: [1]
57.5%: [7]
< 0%: all other assays above

COc1ccc(/C=C/C(=O)Nc2ccccc2C(=O)O)cc1OC [Tranilast]
< 0%: all assays above

COC(=O)C1=C(C)NC(C)=C(C(=O)OC(C)C)C1c1cccc2nonc12 (centres undefined) [Isradipine]
< 0%: all assays above

Nc1cc(C(F)(F)F)c(-c2cc(N3CCOCC3)nc(N3CCOCC3)n2)cn1 [BKM120 (NVP-BKM120, Buparlisib)]
10.9%: [6]
11.5%: [2]
11.8%: [3]
< 0%: all other assays above

Cc1nc2c([nH]1)-c1ccccc1N(C(=O)c1ccc(NC(=O)c3ccccc3-c3ccccc3)cc1)CC2 [Conivaptan hydrochloride]
9.32%: [7]
4.43%: [5]
< 0%: all other assays above

Oc1cc(O)cc(/C=C/c2ccc(O)c(O)c2)c1 [Piceatannol]
0.81%: [2]
< 0%: all other assays above

N=C(N)NC(=N)NCCc1ccccc1 [Phenformin hydrochloride]
29.5%: [4]
< 0%: all other assays above

CCC[C@H](NC(=O)[C@@H]1[C@H]2CCC[C@H]2CN1C(=O)[C@@H](NC(=O)[C@@H](NC(=O)c1cnccn1)C1CCCCC1)C(C)(C)C)C(=O)C(=O)NC1CC1 [Telaprevir (VX-950)]
0.49%: [6]
0.85%: [7]
< 0%: all other assays above

COc1ccccc1-c1cccc(-c2c(O)c3cc(C#N)c(Cl)cc3[nH]c2=O)c1
< 0%: all assays above

Cc1cccc(C)c1OCC(=O)N[C@@H](Cc1ccccc1)[C@@H](O)C[C@H](Cc1ccccc1)NC(=O)[C@H](C(C)C)N1CCCNC1=O [Lopinavir]
8.55%: [7]
< 0%: all other assays above
